From PMC11125953 (Viruses, 2024) come the findings set out here.

Structures are written as SMILES.

For this test, the system named is EHV-4 405/76 reference strain. The test is described as follows: RTCA. The class given is cell-based, Equid herpesvirus 4. Particulars: area under normalized Cell Index curves, 0-120 hpi, EHV-4-infected E. Derm cells.

`CC(C)c1c(C(=O)Nc2ccccc2)c(-c2ccccc2)c(-c2ccc(F)cc2)n1CC[C@@H](O)C[C@@H](O)CC(=O)O` [Atorvastatin] came in with an AUCn (0.4 µM) of 40.71, an AUCn (2 µM) of 27.80, an AUCn (10 µM) of 17.36 and an AUCn (50 µM) of 13.93.
